Assay [1] concerns the target T1, SPL15 split-luciferase fusion (LCI) (Arabidopsis thaliana) (UniProt Q9M2Q6).
T1 sequence: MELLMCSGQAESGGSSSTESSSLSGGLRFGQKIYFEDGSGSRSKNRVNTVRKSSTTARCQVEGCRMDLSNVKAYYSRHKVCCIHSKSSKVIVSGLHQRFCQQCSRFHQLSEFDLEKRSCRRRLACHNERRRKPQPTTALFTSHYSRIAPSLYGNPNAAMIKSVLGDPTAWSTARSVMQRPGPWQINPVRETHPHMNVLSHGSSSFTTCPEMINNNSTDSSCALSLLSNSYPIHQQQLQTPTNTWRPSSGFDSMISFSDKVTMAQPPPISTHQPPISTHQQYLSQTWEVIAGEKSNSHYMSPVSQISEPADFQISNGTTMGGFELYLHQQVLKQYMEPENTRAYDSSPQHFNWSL
Kind of assay: split reporter; luciferase complementation imaging (LCI; nLUC/cLUC) in N. benthamiana leaves, 2-3 days after injection at 25 °C, potassium luciferin.

The target in assay [2] is T2, SPL9 split-luciferase fusion (LCI) (Arabidopsis thaliana) (UniProt Q700W2).
T2 sequence: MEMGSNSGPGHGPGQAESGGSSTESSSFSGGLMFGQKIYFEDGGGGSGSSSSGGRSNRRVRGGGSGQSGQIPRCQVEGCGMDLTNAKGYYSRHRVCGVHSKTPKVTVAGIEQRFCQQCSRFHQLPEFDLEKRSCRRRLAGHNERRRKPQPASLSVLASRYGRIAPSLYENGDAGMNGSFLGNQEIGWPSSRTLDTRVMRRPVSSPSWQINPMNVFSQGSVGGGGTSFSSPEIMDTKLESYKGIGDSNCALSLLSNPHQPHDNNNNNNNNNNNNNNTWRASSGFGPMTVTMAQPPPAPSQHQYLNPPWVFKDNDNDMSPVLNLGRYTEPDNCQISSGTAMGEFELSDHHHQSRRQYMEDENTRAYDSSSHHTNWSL
Described as above.

The target of assay [3] is T3, SPL15 (yeast two-hybrid fusion) (Arabidopsis thaliana) (UniProt Q9M2Q6).
T3 sequence: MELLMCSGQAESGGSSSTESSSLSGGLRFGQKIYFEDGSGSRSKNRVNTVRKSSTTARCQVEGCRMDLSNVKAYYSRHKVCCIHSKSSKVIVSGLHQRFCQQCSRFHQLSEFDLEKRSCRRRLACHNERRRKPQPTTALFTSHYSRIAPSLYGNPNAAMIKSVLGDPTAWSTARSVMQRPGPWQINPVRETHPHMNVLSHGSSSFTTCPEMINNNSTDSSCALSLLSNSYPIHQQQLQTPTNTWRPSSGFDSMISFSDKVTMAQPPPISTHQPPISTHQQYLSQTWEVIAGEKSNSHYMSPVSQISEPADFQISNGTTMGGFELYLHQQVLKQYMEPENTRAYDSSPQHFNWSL
Kind of assay: two-hybrid; LexA/AD system in yeast strain EGY48 plus H18; SD/-Ura/-Trp/-His, then raffinose, galactose and X-gal for blue color development.

For assay [4], the target named is T4, SPL9 (yeast two-hybrid fusion) (Arabidopsis thaliana) (UniProt Q700W2).
T4 sequence: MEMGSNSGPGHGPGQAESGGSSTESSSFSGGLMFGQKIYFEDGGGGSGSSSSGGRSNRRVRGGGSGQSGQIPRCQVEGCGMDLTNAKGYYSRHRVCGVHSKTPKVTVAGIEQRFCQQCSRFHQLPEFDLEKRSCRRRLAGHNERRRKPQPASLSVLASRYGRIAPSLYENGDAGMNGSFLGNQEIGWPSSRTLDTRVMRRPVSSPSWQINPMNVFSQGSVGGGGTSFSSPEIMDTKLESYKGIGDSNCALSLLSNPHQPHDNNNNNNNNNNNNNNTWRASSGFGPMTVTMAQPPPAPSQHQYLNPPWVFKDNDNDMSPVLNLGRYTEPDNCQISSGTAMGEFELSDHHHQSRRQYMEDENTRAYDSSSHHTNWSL
The description is as above.

For assay [5], the target named is T5, BRC1 (yeast two-hybrid fusion) (Arabidopsis thaliana) (UniProt A1YKT1).
T5 sequence: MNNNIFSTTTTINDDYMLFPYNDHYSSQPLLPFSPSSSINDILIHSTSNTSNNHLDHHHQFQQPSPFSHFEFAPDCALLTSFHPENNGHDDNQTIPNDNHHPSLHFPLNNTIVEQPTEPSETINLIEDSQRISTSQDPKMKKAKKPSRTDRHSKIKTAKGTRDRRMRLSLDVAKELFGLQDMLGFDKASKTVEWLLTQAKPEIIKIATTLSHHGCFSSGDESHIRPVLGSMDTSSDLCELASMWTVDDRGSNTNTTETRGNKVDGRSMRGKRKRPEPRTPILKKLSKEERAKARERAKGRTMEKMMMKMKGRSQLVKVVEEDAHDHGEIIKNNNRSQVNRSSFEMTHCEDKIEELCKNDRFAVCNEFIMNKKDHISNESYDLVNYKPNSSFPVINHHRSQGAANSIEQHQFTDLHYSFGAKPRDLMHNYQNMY
Described as above.

In paper PMC7181604, “Arabidopsis FHY3 and FAR1 integrate light and strigolactone signaling to regulate branching” one finds binding data, which are given here for five molecules.

No constants are given. Whether binding was seen depends on the method and setting. For some assays here: Binding seen in cells or lysates may run through a third protein. Some entries that bind do so weakly or less than the wild type. Where a sequence is shown, tags or fusion partners need not be part of it.

B1: FAR1 split-luciferase fusion (LCI) (protein, UniProt Q9SWG3 1-827)
chain: MDLQENLVSDAGDDHMVDIVVEPHSNRDIGIVDEFNIGGDVGFSGDLDLEPRNGIDFDTHEAAYIFYQEYAKSMGFTTSIKNSRRSKKTKDFIDAKFACSRYGVTPESESSGSSSRRSTVKKTDCKASMHVKRRPDGKWIIHEFVKDHNHELLPALAYHFRIQRNVKLAEKNNIDILHAVSERTKKMYVEMSRQSGGYKNIGSLLQTDVSSQVDKGRYLALEEGDSQVLLEYFKRIKKENPKFFYAIDLNEDQRLRNLFWADAKSRDDYLSFNDVVSFDTTYVKFNDKLPLALFIGVNHHSQPMLLGCALVADESMETFVWLIKTWLRAMGGRAPKVILTDQDKFLMSAVSELLPNTRHCFALWHVLEKIPEYFSHVMKRHENFLLKFNKCIFRSWTDDEFDMRWWKMVSQFGLENDEWLLWLHEHRQKWVPTFMSDVFLAGMSTSQRSESVNSFFDKYIHKKITLKEFLRQYGVILQNRYEEESVADFDTCHKQPALKSPSPWEKQMATTYTHTIFKKFQVEVLGVVACHPRKEKEDENMATFRVQDCEKDDDFLVTWSKTKSELCCFCRMFEYKGFLCRHALMILQMCGFASIPPQYILKRWTKDAKSGVLAGEGADQIQTRVQRYNDLCSRATELSEEGCVSEENYNIALRTLVETLKNCVDMNNARNNITESNSQLNNGTHEEENQVMAGVKATKKKTVYRKRKGQQEASQMLESQQSLQPMETISSEAMDMNGYYGPQQNVQGLLNLMEPPHEGYYVDQRTIQGLGQLNSIAPAQDSFFTNQQAMSGMVGQIDFRPPPNFTYTLQEEHLSSAQLPGSSSRQL
On to B1, for which the binding result in assay [1] and in assay [2] was “binds” in each case.

B2: SMXL6 (yeast two-hybrid fusion) (protein, UniProt Q9LML2 1-979)
chain: MPTPVTTARECLTEEAARALDDAVVVARRRSHAQTTSLHAVSALLAMPSSILREVCVSRAARSVPYSSRLQFRALELCVGVSLDRLPSSKSPATEEDPPVSNSLMAAIKRSQANQRRHPESYHLQQIHASNNGGGGCQTTVLKVELKYFILSILDDPIVNRVFGEAGFRSSEIKLDVLHPPVTQLSSRFSRGRCPPLFLCNLPNSDPNREFPFSGSSGFDENSRRIGEVLGRKDKKNPLLIGNCANEALKTFTDSINSGKLGFLQMDISGLSLISIEKEISEILADGSKNEEEIRMKVDDLGRTVEQSGSKSGIVLNLGELKVLTSEANAALEILVSKLSDLLKHESKQLSFIGCVSSNETYTKLIDRFPTIEKDWDLHVLPITASTKPSTQGVYPKSSLMGSFVPFGGFFSSTSNFRVPLSSTVNQTLSRCHLCNEKYLQEVAAVLKAGSSLSLADKCSEKLAPWLRAIETKEDKGITGSSKALDDANTSASQTAALQKKWDNICQSIHHTPAFPKLGFQSVSPQFPVQTEKSVRTPTSYLETPKLLNPPISKPKPMEDLTASVTNRTVSLPLSCVTTDFGLGVIYASKNQESKTTREKPMLVTLNSSLEHTYQKDFKSLREILSRKVAWQTEAVNAISQIICGCKTDSTRRNQASGIWLALLGPDKVGKKKVAMTLSEVFFGGKVNYICVDFGAEHCSLDDKFRGKTVVDYVTGELSRKPHSVVLLENVEKAEFPDQMRLSEAVSTGKIRDLHGRVISMKNVIVVVTSGIAKDNATDHVIKPVKFPEEQVLSARSWKLQIKLGDATKFGVNKRKYELETAQRAVKVQRSYLDLNLPVNETEFSPDHEAEDRDAWFDEFIEKVDGKVTFKPVDFDELAKNIQEKIGSHFERCFGSETHLELDKEVILQILAASWSSLSSGEEEGRTIVDQWMQTVLARSFAEAKQKYGSNPMLGVKLVASSSGLASGVELPAKVDVIW
B2: the binding result in assay [3] is recorded as “binds”; in assay [4], “binds”; in assay [5], “no binding”.

B3: SMXL6 split-luciferase fusion (LCI) (protein, UniProt Q9LML2 1-979)
chain: MPTPVTTARECLTEEAARALDDAVVVARRRSHAQTTSLHAVSALLAMPSSILREVCVSRAARSVPYSSRLQFRALELCVGVSLDRLPSSKSPATEEDPPVSNSLMAAIKRSQANQRRHPESYHLQQIHASNNGGGGCQTTVLKVELKYFILSILDDPIVNRVFGEAGFRSSEIKLDVLHPPVTQLSSRFSRGRCPPLFLCNLPNSDPNREFPFSGSSGFDENSRRIGEVLGRKDKKNPLLIGNCANEALKTFTDSINSGKLGFLQMDISGLSLISIEKEISEILADGSKNEEEIRMKVDDLGRTVEQSGSKSGIVLNLGELKVLTSEANAALEILVSKLSDLLKHESKQLSFIGCVSSNETYTKLIDRFPTIEKDWDLHVLPITASTKPSTQGVYPKSSLMGSFVPFGGFFSSTSNFRVPLSSTVNQTLSRCHLCNEKYLQEVAAVLKAGSSLSLADKCSEKLAPWLRAIETKEDKGITGSSKALDDANTSASQTAALQKKWDNICQSIHHTPAFPKLGFQSVSPQFPVQTEKSVRTPTSYLETPKLLNPPISKPKPMEDLTASVTNRTVSLPLSCVTTDFGLGVIYASKNQESKTTREKPMLVTLNSSLEHTYQKDFKSLREILSRKVAWQTEAVNAISQIICGCKTDSTRRNQASGIWLALLGPDKVGKKKVAMTLSEVFFGGKVNYICVDFGAEHCSLDDKFRGKTVVDYVTGELSRKPHSVVLLENVEKAEFPDQMRLSEAVSTGKIRDLHGRVISMKNVIVVVTSGIAKDNATDHVIKPVKFPEEQVLSARSWKLQIKLGDATKFGVNKRKYELETAQRAVKVQRSYLDLNLPVNETEFSPDHEAEDRDAWFDEFIEKVDGKVTFKPVDFDELAKNIQEKIGSHFERCFGSETHLELDKEVILQILAASWSSLSSGEEEGRTIVDQWMQTVLARSFAEAKQKYGSNPMLGVKLVASSSGLASGVELPAKVDVIW
For B3, the binding entry in assay [1] and in assay [2] was “binds” throughout.

B4: FHY3 split-luciferase fusion (LCI) (protein, UniProt Q9LIE5 1-839)
chain: MDIDLRLHSGDLCKGDDEDRGLDNVLHNEEDMDIGKIEDVSVEVNTDDSVGMGVPTGELVEYTEGMNLEPLNGMEFESHGEAYSFYQEYSRAMGFNTAIQNSRRSKTTREFIDAKFACSRYGTKREYDKSFNRPRARQSKQDPENMAGRRTCAKTDCKASMHVKRRPDGKWVIHSFVREHNHELLPAQAVSEQTRKIYAAMAKQFAEYKTVISLKSDSKSSFEKGRTLSVETGDFKILLDFLSRMQSLNSNFFYAVDLGDDQRVKNVFWVDAKSRHNYGSFCDVVSLDTTYVRNKYKMPLAIFVGVNQHYQYMVLGCALISDESAATYSWLMETWLRAIGGQAPKVLITELDVVMNSIVPEIFPNTRHCLFLWHVLMKVSENLGQVVKQHDNFMPKFEKCIYKSGKDEDFARKWYKNLARFGLKDDQWMISLYEDRKKWAPTYMTDVLLAGMSTSQRADSINAFFDKYMHKKTSVQEFVKVYDTVLQDRCEEEAKADSEMWNKQPAMKSPSPFEKSVSEVYTPAVFKKFQIEVLGAIACSPREENRDATCSTFRVQDFENNQDFMVTWNQTKAEVSCICRLFEYKGYLCRHTLNVLQCCHLSSIPSQYILKRWTKDAKSRHFSGEPQQLQTRLLRYNDLCERALKLNEEASLSQESYNIAFLAIEGAIGNCAGINTSGRSLPDVVTSPTQGLISVEEDNHSRSAGKTSKKKNPTKKRKVNPEQDVMPVAAPESLQQMDKLSPRTVGIESYYGTQQSVQGMVQLNLMGPTRDNFYGNQQTMQGLRQLNSIAPSYDSYYGPQQGIHGQGVDFFRPANFSYDIRDDPNVRTTQLHEDASRHS
For the molecule B4, the binding entry in assay [1] and in assay [2] was “binds” throughout.

B5: SMXL8 split-luciferase fusion (LCI) (protein, UniProt F4IGZ2 1-910)
chain: MPTAVNVAKQCLTAEASYALEEAVNVARRRGHSQTTSLHAISALLSLPTSVLRDACARVRNSAYSPRLQFKALDLCLSVSLDRIQSGHQLGSDDSPPVSNSLMAAIKRSQAHQRRLPENFRIYQEMSQSQNQNSLSCVKVELRQLILSILDDPVVSRVFGEAGFRSSELKLSIIRPVPHLLRYSSQQPLFLCNLTGNPEPNPVRWGFTVPSLNFNGDLDYRRISAVFTKDKGRNPLLVGVSAYGVLTSYLNSLEKNQTDGMILPTKLHGLTAVNIGSEISDQISVKFDKTYTDTRFHDLGKLAEQGSGPGLLLHYGDLRVFTNGEGNVPAANYIVNRISELLRRHGRRVWLIGATTSNEVYEKMMRRFPNVEKDWDLQLLTITSLKPCLPHNKSSLIGSFVPFGGFFSTTPSELKLPFSGFKTEITGPVSSISDQTQSTLPPWLQMTTRTDLNQKSSAKVVQTKEGLESVCGNKFTSSASASTCSAKSVTTDLNLRVSSVTTGSGLKKHLDSKDFSQPQSVSSYSFDNPRDLNAESFKIIYRRLTDMVSGQDEAARVISCALSQPPKSVTRRDVWLNLVGPDTVGKRRMSLVLAEIVYQSEHRFMAVDLGAAEQGMGGCDDPMRLRGKTMVDHIFEVMCRNPFCVVFLENIEKADEKLQMSLSKAIETGKFMDSHGREVGIGNTIFVMTSSSQGSATTTSYSEEKLLRVKGRQVEIRIETVSSLPMVRSVYGPTSVNKRKLMGLGNLQETKDTVESVKRLNRTTNGVLDLNLPAQETEIEEKYHCEENSNVWLMNLKNHKRLIEVPFKPFDFEGLAEKIKKSVKENFDKCVRSDCLLEVDPKIIERLLAAVYFSDSRKDIKELLENIMSPVFLRIKERYEITTSCVVKLVGRDLDIFLEDQMDLFFVKSQ
Consider B5, for which the binding result in assay [1] and in assay [2] was “binds” in each case.
